Results taken from the supplement of paper PMC12819154, “High-throughput peptide-centric local stability assay extends protein–ligand identification to membrane proteins, tissues and bacteria” (Nature Structural & Molecular Biology, 2025).
The list shows a part of the results. Most values lie at the level of the controls, where differences are scatter.

The chains behind the UniProt entries cited, without tags or fusion partners. Where a name states a change or a piece, a line headed by the entry shows the natural chain unless it says otherwise.
UniProt Q8R050, whole entry: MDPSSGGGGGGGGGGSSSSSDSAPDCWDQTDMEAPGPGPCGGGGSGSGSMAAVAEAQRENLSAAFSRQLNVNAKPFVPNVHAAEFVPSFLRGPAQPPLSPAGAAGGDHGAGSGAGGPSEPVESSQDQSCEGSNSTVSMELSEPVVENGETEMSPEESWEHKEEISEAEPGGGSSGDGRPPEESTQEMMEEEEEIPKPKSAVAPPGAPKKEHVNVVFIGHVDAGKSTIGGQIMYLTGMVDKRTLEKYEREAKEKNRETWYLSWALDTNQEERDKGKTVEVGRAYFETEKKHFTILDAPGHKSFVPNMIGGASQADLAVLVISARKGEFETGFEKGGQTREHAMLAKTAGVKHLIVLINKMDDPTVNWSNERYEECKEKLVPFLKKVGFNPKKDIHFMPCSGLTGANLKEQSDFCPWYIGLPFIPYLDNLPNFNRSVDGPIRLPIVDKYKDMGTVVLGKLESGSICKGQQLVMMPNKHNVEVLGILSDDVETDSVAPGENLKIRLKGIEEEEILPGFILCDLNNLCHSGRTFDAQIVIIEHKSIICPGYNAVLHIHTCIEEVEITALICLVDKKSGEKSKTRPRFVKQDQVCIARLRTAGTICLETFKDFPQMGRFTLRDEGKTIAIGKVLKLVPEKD
UniProt Q8R5H1: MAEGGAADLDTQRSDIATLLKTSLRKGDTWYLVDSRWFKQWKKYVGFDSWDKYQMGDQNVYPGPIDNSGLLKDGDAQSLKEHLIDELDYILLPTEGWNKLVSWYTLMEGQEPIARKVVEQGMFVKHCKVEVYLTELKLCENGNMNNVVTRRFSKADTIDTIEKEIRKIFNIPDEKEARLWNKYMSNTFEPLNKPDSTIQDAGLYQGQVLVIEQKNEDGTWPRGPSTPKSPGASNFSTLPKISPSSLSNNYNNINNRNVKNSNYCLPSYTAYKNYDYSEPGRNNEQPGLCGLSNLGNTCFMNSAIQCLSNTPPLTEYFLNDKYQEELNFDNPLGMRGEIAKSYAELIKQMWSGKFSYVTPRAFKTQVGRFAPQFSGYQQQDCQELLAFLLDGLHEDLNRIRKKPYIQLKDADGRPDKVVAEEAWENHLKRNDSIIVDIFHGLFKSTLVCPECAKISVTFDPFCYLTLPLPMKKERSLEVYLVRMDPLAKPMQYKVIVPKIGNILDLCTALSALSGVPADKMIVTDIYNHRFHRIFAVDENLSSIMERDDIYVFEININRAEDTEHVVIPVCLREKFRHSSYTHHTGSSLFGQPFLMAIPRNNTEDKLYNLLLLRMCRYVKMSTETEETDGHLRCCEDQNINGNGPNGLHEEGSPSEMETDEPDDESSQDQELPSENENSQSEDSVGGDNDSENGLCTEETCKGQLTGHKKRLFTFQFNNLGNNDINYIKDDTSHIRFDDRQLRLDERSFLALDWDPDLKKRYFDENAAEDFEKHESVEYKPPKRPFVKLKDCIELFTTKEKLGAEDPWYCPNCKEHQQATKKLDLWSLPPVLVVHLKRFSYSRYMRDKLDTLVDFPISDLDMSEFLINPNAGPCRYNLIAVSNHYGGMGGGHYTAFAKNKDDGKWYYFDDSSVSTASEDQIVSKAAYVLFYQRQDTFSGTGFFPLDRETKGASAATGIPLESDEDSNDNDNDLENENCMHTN
UniProt Q8R1G2: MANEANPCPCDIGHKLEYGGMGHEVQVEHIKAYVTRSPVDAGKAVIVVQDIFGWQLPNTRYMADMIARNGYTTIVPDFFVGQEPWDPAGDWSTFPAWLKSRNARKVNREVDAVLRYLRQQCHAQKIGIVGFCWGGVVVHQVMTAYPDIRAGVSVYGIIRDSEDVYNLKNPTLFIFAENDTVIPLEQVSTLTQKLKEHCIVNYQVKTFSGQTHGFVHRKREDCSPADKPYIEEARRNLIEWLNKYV
UniProt Q8CH40: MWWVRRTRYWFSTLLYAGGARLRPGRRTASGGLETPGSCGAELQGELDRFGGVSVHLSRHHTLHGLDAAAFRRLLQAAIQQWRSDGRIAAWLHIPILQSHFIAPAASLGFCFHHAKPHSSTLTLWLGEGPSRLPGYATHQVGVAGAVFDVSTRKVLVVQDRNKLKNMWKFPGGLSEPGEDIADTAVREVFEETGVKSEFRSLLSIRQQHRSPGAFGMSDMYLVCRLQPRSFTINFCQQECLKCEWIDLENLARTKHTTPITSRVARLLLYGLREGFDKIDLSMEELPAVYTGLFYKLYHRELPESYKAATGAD
UniProt Q8R1K4: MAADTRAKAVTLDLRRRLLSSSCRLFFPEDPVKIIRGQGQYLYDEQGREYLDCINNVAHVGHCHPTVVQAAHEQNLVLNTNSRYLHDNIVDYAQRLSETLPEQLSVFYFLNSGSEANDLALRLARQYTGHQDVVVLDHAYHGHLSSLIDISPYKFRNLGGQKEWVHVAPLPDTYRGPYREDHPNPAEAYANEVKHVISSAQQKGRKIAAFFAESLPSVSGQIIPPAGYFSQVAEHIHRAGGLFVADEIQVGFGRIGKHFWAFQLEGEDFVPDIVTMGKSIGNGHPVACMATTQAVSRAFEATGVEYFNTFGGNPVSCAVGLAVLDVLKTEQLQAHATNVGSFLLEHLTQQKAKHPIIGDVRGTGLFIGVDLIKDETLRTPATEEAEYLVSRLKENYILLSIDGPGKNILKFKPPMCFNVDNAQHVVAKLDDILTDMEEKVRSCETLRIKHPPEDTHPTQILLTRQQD
UniProt Q8CJH3, whole entry: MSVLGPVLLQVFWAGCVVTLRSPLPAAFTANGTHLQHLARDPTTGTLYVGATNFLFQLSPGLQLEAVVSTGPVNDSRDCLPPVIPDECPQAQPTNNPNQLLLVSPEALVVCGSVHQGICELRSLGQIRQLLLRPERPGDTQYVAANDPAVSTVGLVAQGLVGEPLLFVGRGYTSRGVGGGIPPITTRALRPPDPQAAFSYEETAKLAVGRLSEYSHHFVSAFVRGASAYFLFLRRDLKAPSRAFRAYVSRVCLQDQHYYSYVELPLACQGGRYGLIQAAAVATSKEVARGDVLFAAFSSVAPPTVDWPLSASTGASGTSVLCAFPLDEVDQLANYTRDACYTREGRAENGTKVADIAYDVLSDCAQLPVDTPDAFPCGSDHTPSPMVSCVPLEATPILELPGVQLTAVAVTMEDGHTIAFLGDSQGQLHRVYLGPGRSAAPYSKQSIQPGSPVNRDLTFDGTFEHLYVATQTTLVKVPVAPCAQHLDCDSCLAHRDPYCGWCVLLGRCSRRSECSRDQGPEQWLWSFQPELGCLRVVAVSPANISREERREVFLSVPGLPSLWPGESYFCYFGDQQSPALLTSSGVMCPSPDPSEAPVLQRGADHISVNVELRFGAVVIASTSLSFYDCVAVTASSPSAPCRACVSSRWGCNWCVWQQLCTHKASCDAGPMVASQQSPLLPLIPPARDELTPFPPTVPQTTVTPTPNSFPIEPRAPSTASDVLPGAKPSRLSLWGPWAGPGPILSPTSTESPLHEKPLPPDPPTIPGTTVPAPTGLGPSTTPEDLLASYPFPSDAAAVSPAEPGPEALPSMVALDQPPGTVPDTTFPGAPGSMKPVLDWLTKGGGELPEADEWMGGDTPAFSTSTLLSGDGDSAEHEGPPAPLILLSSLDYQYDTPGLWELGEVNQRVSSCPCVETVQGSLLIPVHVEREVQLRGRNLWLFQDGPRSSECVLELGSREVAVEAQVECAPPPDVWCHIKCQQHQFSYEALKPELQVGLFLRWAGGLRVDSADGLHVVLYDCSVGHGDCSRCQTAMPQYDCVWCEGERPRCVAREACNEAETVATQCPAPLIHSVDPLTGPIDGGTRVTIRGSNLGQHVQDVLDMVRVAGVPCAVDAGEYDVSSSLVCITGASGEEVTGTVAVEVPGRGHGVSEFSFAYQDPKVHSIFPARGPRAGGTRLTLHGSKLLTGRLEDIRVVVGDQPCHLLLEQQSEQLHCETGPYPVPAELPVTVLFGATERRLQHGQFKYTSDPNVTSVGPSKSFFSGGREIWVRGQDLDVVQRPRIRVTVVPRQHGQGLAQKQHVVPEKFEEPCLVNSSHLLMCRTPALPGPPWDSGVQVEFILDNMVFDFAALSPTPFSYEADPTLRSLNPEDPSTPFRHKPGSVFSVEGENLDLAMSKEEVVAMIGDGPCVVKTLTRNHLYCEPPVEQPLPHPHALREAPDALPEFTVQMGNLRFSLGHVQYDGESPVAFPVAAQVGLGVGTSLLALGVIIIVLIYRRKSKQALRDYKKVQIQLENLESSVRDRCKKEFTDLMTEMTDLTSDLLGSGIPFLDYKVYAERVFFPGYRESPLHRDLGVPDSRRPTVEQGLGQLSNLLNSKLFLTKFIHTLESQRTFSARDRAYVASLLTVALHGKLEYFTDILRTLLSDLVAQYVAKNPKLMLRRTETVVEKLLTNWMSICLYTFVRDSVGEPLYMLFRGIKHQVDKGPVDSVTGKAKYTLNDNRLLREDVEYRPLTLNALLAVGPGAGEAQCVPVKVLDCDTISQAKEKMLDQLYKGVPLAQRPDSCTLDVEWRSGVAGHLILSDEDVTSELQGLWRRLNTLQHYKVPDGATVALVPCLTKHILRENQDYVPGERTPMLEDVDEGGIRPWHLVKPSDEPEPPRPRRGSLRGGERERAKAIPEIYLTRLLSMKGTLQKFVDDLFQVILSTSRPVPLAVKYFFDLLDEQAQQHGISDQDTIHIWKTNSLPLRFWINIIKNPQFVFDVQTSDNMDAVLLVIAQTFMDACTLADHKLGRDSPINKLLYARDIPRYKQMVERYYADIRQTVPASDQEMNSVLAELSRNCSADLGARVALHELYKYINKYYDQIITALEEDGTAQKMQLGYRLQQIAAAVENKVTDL
UniProt Q8VCI5: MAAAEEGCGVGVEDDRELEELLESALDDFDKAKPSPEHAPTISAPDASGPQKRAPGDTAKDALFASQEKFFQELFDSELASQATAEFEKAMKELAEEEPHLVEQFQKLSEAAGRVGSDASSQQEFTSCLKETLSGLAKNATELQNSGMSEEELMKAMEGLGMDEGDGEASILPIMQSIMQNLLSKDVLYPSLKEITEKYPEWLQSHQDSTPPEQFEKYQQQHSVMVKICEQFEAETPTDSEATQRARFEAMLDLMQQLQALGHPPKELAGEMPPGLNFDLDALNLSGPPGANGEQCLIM
UniProt Q8CGE8: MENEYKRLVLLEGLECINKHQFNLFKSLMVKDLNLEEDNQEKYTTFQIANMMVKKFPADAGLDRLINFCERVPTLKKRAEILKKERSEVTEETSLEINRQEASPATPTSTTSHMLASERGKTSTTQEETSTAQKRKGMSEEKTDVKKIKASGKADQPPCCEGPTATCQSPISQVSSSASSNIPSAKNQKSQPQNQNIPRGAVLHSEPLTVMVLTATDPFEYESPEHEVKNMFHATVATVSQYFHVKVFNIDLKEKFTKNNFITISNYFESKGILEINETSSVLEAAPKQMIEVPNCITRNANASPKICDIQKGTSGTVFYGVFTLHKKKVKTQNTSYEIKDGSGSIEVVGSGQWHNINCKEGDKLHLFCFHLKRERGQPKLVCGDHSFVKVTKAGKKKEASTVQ
UniProt Q8R1S4: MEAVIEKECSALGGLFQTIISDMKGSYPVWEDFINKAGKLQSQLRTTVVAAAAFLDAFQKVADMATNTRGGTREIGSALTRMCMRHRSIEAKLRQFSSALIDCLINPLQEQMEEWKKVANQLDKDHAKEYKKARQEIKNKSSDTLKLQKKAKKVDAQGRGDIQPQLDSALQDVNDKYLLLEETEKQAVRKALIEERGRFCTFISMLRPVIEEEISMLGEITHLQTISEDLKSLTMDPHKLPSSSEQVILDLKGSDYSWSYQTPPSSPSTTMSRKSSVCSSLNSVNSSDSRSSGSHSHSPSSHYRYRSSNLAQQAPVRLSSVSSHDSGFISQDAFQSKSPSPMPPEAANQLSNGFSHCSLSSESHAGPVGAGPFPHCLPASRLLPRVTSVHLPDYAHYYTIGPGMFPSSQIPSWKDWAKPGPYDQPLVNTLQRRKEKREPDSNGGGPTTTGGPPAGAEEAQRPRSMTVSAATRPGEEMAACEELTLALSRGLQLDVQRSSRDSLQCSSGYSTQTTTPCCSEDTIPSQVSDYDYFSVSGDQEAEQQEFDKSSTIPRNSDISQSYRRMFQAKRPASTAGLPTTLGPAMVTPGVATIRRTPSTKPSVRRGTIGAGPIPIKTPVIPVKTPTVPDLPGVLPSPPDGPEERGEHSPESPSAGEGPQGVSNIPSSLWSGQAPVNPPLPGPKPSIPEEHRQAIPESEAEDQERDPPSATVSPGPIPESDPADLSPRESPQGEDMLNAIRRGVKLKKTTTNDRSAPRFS
UniProt Q8JZU0: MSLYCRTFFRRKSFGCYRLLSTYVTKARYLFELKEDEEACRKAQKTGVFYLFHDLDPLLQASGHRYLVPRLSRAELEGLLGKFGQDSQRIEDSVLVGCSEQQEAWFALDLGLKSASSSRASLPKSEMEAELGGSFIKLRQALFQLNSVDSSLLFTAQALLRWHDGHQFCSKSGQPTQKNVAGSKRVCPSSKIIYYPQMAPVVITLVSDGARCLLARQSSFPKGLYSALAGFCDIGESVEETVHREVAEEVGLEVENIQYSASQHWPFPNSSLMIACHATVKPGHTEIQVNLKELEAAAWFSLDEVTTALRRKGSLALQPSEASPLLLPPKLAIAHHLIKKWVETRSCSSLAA

The targets below were run with CN[C@@H]1C[C@H]2O[C@@](C)([C@@H]1OC)n1c3ccccc3c3c4c(c5c6ccccc6n2c5c31)C(=O)NC4 [staurosporine] (assay: log2 fold change of pooled soluble protein (PISA), ligand vs vehicle (log2 ratio); higher = more thermally stabilized). Conditions: ligand concentration: 20 uM; assay format: PISA pool 52.9/55.5/58.6 C.

Target | log2 fold change of pooled soluble protein
UniProt Q8K3W0 | 0.126
UniProt Q8R050 | -0.0587
UniProt Q8R5H1 | -0.00435
UniProt Q8R5A3 | 0.0336
UniProt Q8R1G2 | -0.0559
UniProt Q8CH40 | -0.171
UniProt Q8R123 | 0.0306
UniProt Q8VC30 | 0.0532
UniProt Q8R1B4 | -0.0742
UniProt Q8R1K4 | 0.0812
UniProt Q8JZQ5 | -0.214
UniProt Q8R1N0 | -0.149
UniProt Q8CJF7 | 0.145
UniProt Q8JZV9 | 0.0743
UniProt Q8CJH3 | -0.189
UniProt Q8JZU2 | -0.211
UniProt Q8R1H0 | 0.155
UniProt Q8JZV7 | 0.0351
UniProt Q8K4H1 | -0.225

Target | log2 fold change of pooled soluble protein
UniProt Q8VCF0 | -0.168
UniProt Q8CGC7 | 0.0429
UniProt Q8VCI5 | 0.16
UniProt Q8CGE8 | 0.0169
UniProt Q8R4N0 | -0.00243
UniProt Q8R4U7 | -0.0509
UniProt Q8CHU3 | 0.0227
UniProt Q8CI32 | 0.0804
UniProt Q8R1S4 | 0.00995
UniProt Q8K370 | -0.0228
UniProt Q8JZU0 | 0.0359
UniProt Q8R104 | -0.0116
UniProt Q8CHG3 | 0.000137
UniProt Q8VCE2 | 0.0527
UniProt Q8K199 | -0.2
UniProt Q8R1Q9 | 0.0653
UniProt Q8R0H9 | 0.0446
UniProt Q8R2Y2 | -0.0882

Taken from above:
Entry for UniProt Q8VC30 under log2 fold change of pooled soluble protein: 0.0532
Entry for UniProt Q8R1Q9 under log2 fold change of pooled soluble protein: 0.0653
